Assay results as given in the supplement of paper PMC4604168 (melanoma cell lines).
The other results are listed elsewhere or left out. Single values are uncertain, as repeats are few or missing.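 Imaging used 1,536-well plates; nuclei positive for cleaved PARP by antibody were divided by total DNA-stained nuclei to yield the apoptosis fraction. Doses for screening kept most cells viable, and cell lines differ markedly in resting and induced cleaved-PARP levels.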

Legend:
Assay in all cases: cleaved PARP positive nuclei fraction relative to DMSO control; melanoma cells; higher = more apoptosis
Conditions in all cases: library dose: low library concentration; 72 h
[1] = system: 501Mel
[2] = system: A101D
[3] = system: A2058
[4] = system: A375
[5] = system: C32
[6] = system: CBRC008 (line from a melanoma biopsy)
[7] = system: CBRC014 (line from a melanoma biopsy)
[8] = system: CBRC016 (line from a melanoma biopsy)
[9] = system: CBRC017 (line from a melanoma biopsy)

CC(C)C[C@H](NC(=O)[C@H](Cc1ccccc1)NC(=O)c1cnccn1)B(O)O [Bortezomib] + C[As](C)SC[C@H](NC(=O)CC[C@H](N)C(=O)O)C(=O)NCC(=O)O [Darinaparsin] (first compound 0.001 µM, partner dose 0.4 µM)
cleaved PARP positive nuclei fraction [1]: 1460% | cleaved PARP positive nuclei fraction [2]: 1160% | cleaved PARP positive nuclei fraction [3]: 143% | cleaved PARP positive nuclei fraction [4]: 91% | cleaved PARP positive nuclei fraction [5]: 89.6% | cleaved PARP positive nuclei fraction [6]: 425% | cleaved PARP positive nuclei fraction [7]: 169% | cleaved PARP positive nuclei fraction [8]: 633% | cleaved PARP positive nuclei fraction [9]: 192%

Cn1cc(C2=C(c3cn(C4CCN(Cc5ccccn5)CC4)c4ccccc34)C(=O)NC2=O)c2ccccc21 [Enzastaurin] + Clc1ccc(Nc2nnc(Cc3ccncc3)c3ccccc23)cc1 [vatalanib] (first compound 0.8 µM, partner dose 2 µM)
cleaved PARP positive nuclei fraction [1]: 58.1% | cleaved PARP positive nuclei fraction [2]: 195% | cleaved PARP positive nuclei fraction [3]: 100% | cleaved PARP positive nuclei fraction [4]: 72% | cleaved PARP positive nuclei fraction [5]: 147% | cleaved PARP positive nuclei fraction [6]: 178% | cleaved PARP positive nuclei fraction [7]: 95.4% | cleaved PARP positive nuclei fraction [8]: 72.9% | cleaved PARP positive nuclei fraction [9]: 201%

C[C@]12O[C@H](C[C@]1(O)CO)n1c3ccccc3c3c4c(c5c6ccccc6n2c5c31)CNC4=O [Lestaurtinib] + C#Cc1cccc(Nc2ncnc3cc(OCCOC)c(OCCOC)cc23)c1 [erlotinib] (first compound 0.004 µM, partner dose 0.8 µM)
cleaved PARP positive nuclei fraction [1]: 98.6% | cleaved PARP positive nuclei fraction [2]: 106% | cleaved PARP positive nuclei fraction [3]: 228% | cleaved PARP positive nuclei fraction [4]: 59.3% | cleaved PARP positive nuclei fraction [5]: 81.5% | cleaved PARP positive nuclei fraction [6]: 265% | cleaved PARP positive nuclei fraction [7]: 94.5% | cleaved PARP positive nuclei fraction [8]: 44.8% | cleaved PARP positive nuclei fraction [9]: 86.9%

Cn1cc(C2=C(c3cn(C4CCN(Cc5ccccn5)CC4)c4ccccc34)C(=O)NC2=O)c2ccccc21 [Enzastaurin] + COCC[n+]1c2c(n(Cc3cnccn3)c1C)C(=O)c1ccccc1C2=O [YM155] (first compound 0.8 µM, partner dose 0.0004 µM)
cleaved PARP positive nuclei fraction [1]: 64.8% | cleaved PARP positive nuclei fraction [2]: 57.9% | cleaved PARP positive nuclei fraction [3]: 177% | cleaved PARP positive nuclei fraction [4]: 242% | cleaved PARP positive nuclei fraction [5]: 158% | cleaved PARP positive nuclei fraction [6]: 130% | cleaved PARP positive nuclei fraction [7]: 99.1% | cleaved PARP positive nuclei fraction [8]: 229% | cleaved PARP positive nuclei fraction [9]: 109%

Cn1cc(C2=C(c3cn(C4CCN(Cc5ccccn5)CC4)c4ccccc34)C(=O)NC2=O)c2ccccc21 [Enzastaurin] + Nc1ccn([C@@H]2O[C@H](CO)[C@@H](O)C2(F)F)c(=O)n1 [gemcitabine] (first compound 0.8 µM, partner dose 0.0004 µM)
cleaved PARP positive nuclei fraction [1]: 53.7% | cleaved PARP positive nuclei fraction [2]: 86.6% | cleaved PARP positive nuclei fraction [3]: 178% | cleaved PARP positive nuclei fraction [4]: 116% | cleaved PARP positive nuclei fraction [5]: 71.4% | cleaved PARP positive nuclei fraction [6]: 121% | cleaved PARP positive nuclei fraction [7]: 126% | cleaved PARP positive nuclei fraction [8]: 128% | cleaved PARP positive nuclei fraction [9]: 94.3%

Cn1cc(C2=C(c3cn(C4CCN(Cc5ccccn5)CC4)c4ccccc34)C(=O)NC2=O)c2ccccc21 [Enzastaurin] + Nc1cccc2c1CN(C1CCC(=O)NC1=O)C2=O [lenalidomide] (first compound 0.8 µM, partner dose 1 µM)
cleaved PARP positive nuclei fraction [1]: 80.5% | cleaved PARP positive nuclei fraction [2]: 197% | cleaved PARP positive nuclei fraction [3]: 67.9% | cleaved PARP positive nuclei fraction [4]: 241% | cleaved PARP positive nuclei fraction [5]: 75.8% | cleaved PARP positive nuclei fraction [6]: 105% | cleaved PARP positive nuclei fraction [7]: 107% | cleaved PARP positive nuclei fraction [8]: 67.3% | cleaved PARP positive nuclei fraction [9]: 218%

Cc1cn(-c2cc(NC(=O)c3ccc(C)c(Nc4nccc(-c5cccnc5)n4)c3)cc(C(F)(F)F)c2)cn1 [nilotinib] + Cn1cc(C2=C(c3cn(C4CCN(Cc5ccccn5)CC4)c4ccccc34)C(=O)NC2=O)c2ccccc21 [Enzastaurin] (first compound 0.2 µM, partner dose 0.8 µM)
cleaved PARP positive nuclei fraction [1]: 81.5% | cleaved PARP positive nuclei fraction [2]: 123% | cleaved PARP positive nuclei fraction [3]: 56.3% | cleaved PARP positive nuclei fraction [4]: 36% | cleaved PARP positive nuclei fraction [5]: 76.5% | cleaved PARP positive nuclei fraction [6]: 78.5% | cleaved PARP positive nuclei fraction [7]: 94.5% | cleaved PARP positive nuclei fraction [8]: 59% | cleaved PARP positive nuclei fraction [9]: 111%

N.N.[Cl][Pt][Cl] [cisplatin] + CO[C@H]1C[C@@H]2CC[C@@H](C)[C@@](O)(O2)C(=O)C(=O)N2CCCC[C@H]2C(=O)O[C@H]([C@H](C)C[C@@H]2CC[C@@H](OCCO)[C@H](OC)C2)CC(=O)[C@H](C)/C=C(\C)[C@@H](O)[C@@H](OC)C(=O)[C@H](C)C[C@H](C)/C=C/C=C/C=C/1C [everolimus] (first compound 1.6 µM, partner dose 0.02 µM)
cleaved PARP positive nuclei fraction [1]: 195% | cleaved PARP positive nuclei fraction [2]: 109% | cleaved PARP positive nuclei fraction [3]: 68% | cleaved PARP positive nuclei fraction [4]: 452% | cleaved PARP positive nuclei fraction [5]: 102% | cleaved PARP positive nuclei fraction [6]: 196% | cleaved PARP positive nuclei fraction [7]: 125% | cleaved PARP positive nuclei fraction [8]: 163% | cleaved PARP positive nuclei fraction [9]: 133%

CCCS(=O)(=O)Nc1ccc(F)c(C(=O)c2c[nH]c3ncc(Cl)cc23)c1F + C[As](C)SC[C@H](NC(=O)CC[C@H](N)C(=O)O)C(=O)NCC(=O)O [Darinaparsin] (first compound 0.08 µM, partner dose 0.4 µM)
cleaved PARP positive nuclei fraction [1]: 74.4% | cleaved PARP positive nuclei fraction [2]: 46.1% | cleaved PARP positive nuclei fraction [3]: 127% | cleaved PARP positive nuclei fraction [4]: 131% | cleaved PARP positive nuclei fraction [5]: 214% | cleaved PARP positive nuclei fraction [6]: 123% | cleaved PARP positive nuclei fraction [7]: 188% | cleaved PARP positive nuclei fraction [8]: 130% | cleaved PARP positive nuclei fraction [9]: 93.1%

COc1ccc(C2=N[C@@H](c3ccc(Cl)cc3)[C@@H](c3ccc(Cl)cc3)N2C(=O)N2CCNC(=O)C2)c(OC(C)C)c1 [Nutlin-3] + C[C@]12O[C@H](C[C@]1(O)CO)n1c3ccccc3c3c4c(c5c6ccccc6n2c5c31)CNC4=O [Lestaurtinib] (first compound 0.1 µM, partner dose 0.004 µM)
cleaved PARP positive nuclei fraction [1]: 268% | cleaved PARP positive nuclei fraction [2]: 197% | cleaved PARP positive nuclei fraction [3]: 53.2% | cleaved PARP positive nuclei fraction [4]: 54.2% | cleaved PARP positive nuclei fraction [5]: 79.1% | cleaved PARP positive nuclei fraction [6]: 108% | cleaved PARP positive nuclei fraction [7]: 111% | cleaved PARP positive nuclei fraction [8]: 116% | cleaved PARP positive nuclei fraction [9]: 122%

COc1ccc(C2=N[C@@H](c3ccc(Cl)cc3)[C@@H](c3ccc(Cl)cc3)N2C(=O)N2CCNC(=O)C2)c(OC(C)C)c1 [Nutlin-3] + C[As](C)SC[C@H](NC(=O)CC[C@H](N)C(=O)O)C(=O)NCC(=O)O [Darinaparsin] (first compound 0.1 µM, partner dose 0.4 µM)
cleaved PARP positive nuclei fraction [1]: 63.7% | cleaved PARP positive nuclei fraction [2]: 44.5% | cleaved PARP positive nuclei fraction [3]: 265% | cleaved PARP positive nuclei fraction [4]: 140% | cleaved PARP positive nuclei fraction [5]: 147% | cleaved PARP positive nuclei fraction [6]: 72.5% | cleaved PARP positive nuclei fraction [7]: 86.2% | cleaved PARP positive nuclei fraction [8]: 151% | cleaved PARP positive nuclei fraction [9]: 86.8%
